Assay results published in paper PMC10163288.
The list shows a part of the results.

B1: il10ra_site1_normal_mot_HHH_b2_04680_000000215_0001_1_16_H_._HHH_b1_00201_af2_0001_0000300029_0000001_0 (protein)
chain: SSSSNEENREAYELLRKAFELLQQGNPEEARELLEEAEELARKGGNHALEFAIRLLLEQLSSSSS
B2: il10ra_site1_sap_13_mot_HHH_b1_00682_000000211_0001_1_20_H_._HHH_b1_00625_0001_0000200017_0000003_0_0001 (protein)
chain: SSSSDEYVELTIRFARWLIKAGDKEAAERMLKAAKEMAEKDNDDELLRRLEELEEEIEELSSSSS
B3: il10ra_site1_normal_mot_8756ee2cf497b5429c717dfc0c0bcfd6_0001_000000186_0001_1_13_H_._HHH_b2_03301_0001_0000400029_0000002_0 (protein)
chain: SSSSSESEEVAELLRRASELITEGNPEEAREVLEQARELIEELGNDVLRVQLEYLERELESSSSS
B4: il10ra_site1_sap_23_mot_9c3e5e2d2b9ffb70dc788f52fbfab6d5_0001_1_000000198_0001_1_14_H_._HHH_b1_00922_0001_0001300058_0000001_0_0001_af2pred_0001 (protein)
chain: SSSSNEELKELLKLIREAAELLFEGNPEEARKLIKEAQELAEELGDTTAKVILEFLEKQANSSSS
B5: il10ra_site1_sap_24_mot_HHH_b1_02665_000000293_0001_1_18_H_._HHH_b2_00244_0001_0000100001_0000001_0_0001_af2pred_0001 (protein)
chain: SSSSDSRELIRLLRRALELLNDGNPEEAEKLLERAQEIAEEANSLNLRVVIEFVLEQVEQHSSSS
B6: il10ra_site1_sap_15_mot_HHH_b1_03327_000000294_0001_1_19_H_._HHH_b1_05077_0001_0000200007_0000001_0_0001 (protein)
chain: SSSSDLYELSRKAAELSHEGNPEEAREVAEEAFEIAEEKGNRILLWTIEWLIERIRKLLNSSSSS
B7: il10ra_site1_normal_mot_6bb093d23f5042b6c551c363657da53b_0001_1_000000153_0001_51_65_H_._HHH_b2_06805_af2_0001_0000200011_0000001_0_af2pred_dldesign_0_af2pred (protein)
chain: SSSSSTEEKTAELKKKIEELLKAGNEEELREQLREAARFALETKDSELIKLVIEAAEKLESSSSS
B8: il10ra_site1_normal_mot_HHH_b1_00666_000000226_0001_43_56_H_._HHH_b2_00187_af2_0001_0000100008_0000001_0 (protein)
chain: SSSSSSDEEEEEVRELLEEAEKIEDQEEANRVLQEAVRLVMELGNEELLRLLWEAVLKLSSSSSS
B9: il10ra_site1_normal_mot_HHH_b1_04573_000000273_0001_43_57_H_._HHH_b2_00873_0001_0000400017_0000002_0_af2pred_0001 (protein)
chain: SSSSSSEFEEEVEELLEQAKRIPNPQERTRLLREAAELAAELGNPELLRLVLEVAQEILSSSSSS
B10: il10ra_site1_normal_mot_b26a303360aa2756ef5b79665ce52f45_0001_000000179_0001_1_11_H_._HHH_b2_05971_0001_0000300035_0000001_1_af2pred_0001 (protein)
chain: SSSSSSVERLFELSRRAAELAFKGDREEAREVLEEAKELAEELGDLNTLHNLEHLERNINSSSSS
B11: il10ra_site1_sap_21_mot_HHH_b2_06979_000000158_0001_42_57_H_._HHH_b1_00540_af2_0001_0000100003_0000001_0_0001 (protein)
chain: SSSTLTERIYKLSEKALELLKQGDTEEAEEVVEEAIELAEEAGSRVLAHVLEFLLEAIKRRSSSS
B12: il10ra_site1_normal_mot_HHH_b1_05326_000000242_0001_1_20_H_._HHH_b1_03012_af2_0001_0000200011_0000001_0 (protein)
chain: SSSSDEELQEALELSLEAFRLLLRGNEEEAKEVLEKAEELLEKAGDPRLLRAVRDLLQVISSSSS
B13: il10ra_site1_sap_25_mot_HHH_b1_02208_000000160_0001_1_19_H_._HHH_b2_05740_af2_0001_0000700026_0000002_0_0001 (protein)
chain: SSSSDMEEELIEALLRLLEQAIELGNEEHARRLIEAVRLAIERNNDEEAEERLRELEERLKSSSS
B14: il10ra_site1_sap_11_mot_HHH_b2_06321_af2_000000133_0001_42_55_H_._HHH_b1_01516_0001_0000300019_0000001_0_0001 (protein)
chain: SSSSSADEWYELLRRAIELAKEGNPEEARELLKEAEEIARELNSKVAELLIEFVEKEVEKASSSS
B15: il10ra_site1_normal_mot_HHH_b1_02809_af2_000000277_0001_40_57_H_._HHH_b1_02735_0001_0000400019_0000001_0 (protein)
chain: SSSSSDEEARRTARFLLRAAKQVPDPEKRELALRFALRLAREGNDPELEEEIEELLEQLGSSSSS
B16: il10ra_site1_sap_25_mot_HHH_b1_01082_af2_000000031_0001_3_19_H_._HHH_b1_02874_0001_0000300019_0000001_0_0001_1 (protein)
chain: SSSSDEEVEKLIHQAIELLIRGNPEEAEKVLEEARELAEKLGDPRLEELIELLLKMIEDAGSSSS
B17: il10ra_site1_sap_16_mot_HHH_b1_00814_af2_000000078_0001_43_57_H_._HHH_b2_04839_af2_0001_0000200006_0000001_0_0001 (protein)
chain: SSSSDESHELAVRAVLRAARLFIRGNPEEAERLLEEVLKELRELGDEEAEEVIERALEVFKSSSS
B18: il10ra_site1_sap_15_mot_HHH_b2_02354_af2_000000157_0001_40_56_H_._HHH_b1_07270_0001_0000500051_0000001_1_0001 (protein)
chain: SSSSSEQERAALRFAKWLIEIIEETGNPSARRSLEVMLWLLERINSEEAEELLKEAEELLSSSSS
B19: il10ra_site1_normal_mot_HHH_b2_08186_000000021_0001_43_56_H_._HHH_b1_08292_af2_0001_0000100002_0000002_0 (protein)
chain: SSSSSSEEEEEVRELLEELEKIKDHEEFLRLAQEILRLIFELGNDELLKRLWEILKRSHSSSSSS
B20: il10ra_site1_sap_25_mot_HHH_b2_03220_af2_000000223_0001_23_40_H_._HHH_b2_05514_af2_0001_0000300004_0000001_0_0001 (protein)
chain: SSSSDEAREEIWELIRKALELRAEGNPEEAERLLEEARELAEENNSWVFLHAIEHLLRAIRSSSS
B21: il10ra_site1_normal_mot_e1dd4851c59bc1cdde016f988f6856bd_0001_1_000000200_0001_16_31_H_._HEEHE_2724_af2_0001_0000100003_0000001_0_af2pred_dldesign_0_af2pred (protein)
chain: SKLDRFRLGVAAAAETAGVSDVTVTEKDGVVIVTINANTPQAEELKNMVEYLAEKLDIKVEVVIK
B22: il10ra_site1_sap_17_mot_HHH_b2_02497_000000141_0001_1_20_H_._HHH_b2_05869_0001_0000200022_0000001_0_0001 (protein)
chain: SSSSDEEIRERVEELLEQAEETDDADEAYELLREAIELASEGRDPELLELVMEIIRRWLRSSSSS
B23: il10ra_site1_sap_22_mot_HHH_b1_06789_af2_000000041_0001_1_20_H_._HHH_b2_06526_0001_0000400019_0000001_0_0001 (protein)
chain: SSSSSREEVLRLIIRAIRALFRGDPEEARELVEEAHEIARENNDPDLERAVEILRRAVEAASSSS
B24: il10ra_site1_sap_16_mot_HHH_b2_06857_af2_000000179_0001_42_54_H_._HHH_b2_07872_af2_0001_0000100004_0000002_0_0001 (protein)
chain: SSSSSDRQELIELIEEVLELLIRNDEEHLRELLKEALEIAEELGDERAAHVLEDLLKLVGSSSSS
B25: il10ra_site1_sap_14_mot_HHH_b1_02397_af2_000000085_0001_39_57_H_._HHH_b2_01571_af2_0001_0001400005_0000001_0_0001 (protein)
chain: SSSSDERDELSRLVYEASRAAFEARSEEEREEIKELLERLLEEVPDPAMQSVLRIAIRELSSSSS
B26: il10ra_site1_normal_mot_HHH_b2_00612_000000251_0001_1_14_H_._HHH_b2_04913_0002_0000500043_0000001_0_af2pred_0001 (protein)
chain: SSSSSEATRLAREALKLLLELAEEGDPEEVERLAEEVKEELEELGNELAARQIEFAAKRLKSSSS
B27: il10ra_site1_sap_19_mot_HHH_b2_03529_000000059_0001_37_51_H_._HHH_b1_07155_0001_0000100004_0000001_0_0001 (protein)
chain: SSSSDQEFYERVEEAIKRAIELQRNGNPEEAEELLEEILRLAEEEGNWAVRFAIRHLLRLLSSSS
B28: il10ra_site1_sap_17_mot_HHH_b1_07369_af2_000000079_0001_1_18_H_._HHH_b1_01560_0001_0000100001_0000001_0_0001 (protein)
chain: SSSSYEEVKRLIEEIIRALREGNPEEARELLEELERLAEERNDPALRFAVELLERAIRRASSSSS
B29: il10ra_site1_sap_17_mot_HHH_b1_06789_af2_000000041_0001_1_20_H_._HHH_b1_04601_0001_0000700049_0000002_0_0001_af2pred_0001 (protein)
chain: SSSSSDEEFERLVEELLEEAKHIEDPDELSYVLIRAFAIANEGRDPELKELVEEVAQELISSSSS
B30: il10ra_site1_sap_25_mot_HHH_b2_01776_000000118_0001_38_52_H_._ems_3hC_921_0001_0000200020_0000001_0_0001 (protein)
chain: SSSSYEEVKKLIEEIIRLAREGNPEEAEKVLEELERLAEELNNPSVRFVVELLKEAIRAHSSSSS
B31: il10ra_site1_normal_mot_HHH_b1_00999_000000080_0001_41_55_H_._HHH_b1_00039_af2_0001_0000100003_0000001_0 (protein)
chain: SSSSSSDISELAQEALRFAFRLGDEEVLRAIWELVKKWGREGDPRYEEELEELLEELRSSSSSSS
B32: il10ra_site1_normal_mot_HHH_b1_03262_af2_000000181_0001_43_57_H_._HHH_b2_04604_0001_0000200009_0000001_1_af2pred_0001 (protein)
chain: SSSSDERVRLTLHLVELLIKEGDLEAARFLLKAAKRLAERDGDEELEELIERLEEEVREGSSSSS
B33: il10ra_site1_normal_mot_65b8060e20531850bca9f2e11f97d954_0001_af2_000000137_0001_17_31_H_._HHH_b2_06315_0001_0000100001_0000002_0_af2pred_0001 (protein)
chain: SSSSDRDERALEIARRAAELLLEEGDPEAAKLALRLAVLLAKALGNEELLEELERLLREISSSSS
B34: il10ra_site1_normal_mot_HHH_b2_02354_af2_000000157_0001_40_56_H_._HHH_b1_07268_0001_0000100002_0000001_0_af2pred_0001 (protein)
chain: SSSSDKHEAAELITEIIKLLKEGDHEEAKELIEELEELAKRLNNPALKHLVKSLKKVIKEQSSSS
B35: il10ra_site1_sap_27_mot_HHH_b1_07286_af2_000000054_0001_1_19_H_._HHH_b2_07908_0001_0000600047_0000001_0_0001 (protein)
chain: SSSSDEWYERAKRLIERAAQLAREGNPEEAEEVLEELLELLRERGDRITSLVVEFAIRSLSSSSS
B36: il10ra_site1_sap_18_mot_HHH_b2_00230_000000227_0001_1_19_H_._HHH_b2_01903_0001_0000500025_0000001_0_0001_af2pred_0001 (protein)
chain: SSSSNEEERVARLLFRVVELLANGNPEEAEEVLEEARRLAEELGDEELRRAVEIAERAVKSSSSS
B37: il10ra_site1_normal_mot_HHH_b2_07086_af2_000000231_0001_20_36_H_._HHH_b2_02380_0001_0000200015_0000002_0_af2pred_dldesign_0_af2pred (protein)
chain: SSSSSPIEEEINRLIEKAKELKKAGKLQEAAELLREALRLAYENKNAELFNKVIKAAAELKSSSS

target: il10ra, Q13651; test: yeast display titration

Apparent Kd, inactive:
B1 no binding seen
B2 no binding seen
B3 no binding seen
B4 no binding seen
B5 no binding seen
B6 no binding seen
B7 no binding seen
B8 no binding seen
B9 no binding seen
B10 no binding seen
B11 no binding seen
B12 no binding seen
B13 no binding seen
B14 no binding seen
B15 no binding seen
B16 no binding seen
B17 no binding seen
B18 no binding seen
B19 no binding seen
B20 no binding seen
B21 no binding seen
B22 no binding seen
B23 no binding seen
B24 no binding seen
B25 no binding seen
B26 no binding seen
B27 > 1500 nM
B28 no binding seen
B29 no binding seen
B30 no binding seen
B31 no binding seen
B32 no binding seen
B33 no binding seen
B34 no binding seen
B35 > 664 nM
B36 no binding seen
B37 no binding seen

Quoted at random: 2 records from the list
Apparent Kd, inactive:
B34 no binding seen
B17 no binding seen
